In patent US20050042227A1:
These are yes or no findings as the source states them, for the method shown. Some binding calls cover weakened binding; strength is not graded here. Sequences can lack the tags named with a protein.

By UniProt entry, the sequences of proteins in these tests, tags left out. Residues count along the entry.
UniProt Q07954, residues 806-1183: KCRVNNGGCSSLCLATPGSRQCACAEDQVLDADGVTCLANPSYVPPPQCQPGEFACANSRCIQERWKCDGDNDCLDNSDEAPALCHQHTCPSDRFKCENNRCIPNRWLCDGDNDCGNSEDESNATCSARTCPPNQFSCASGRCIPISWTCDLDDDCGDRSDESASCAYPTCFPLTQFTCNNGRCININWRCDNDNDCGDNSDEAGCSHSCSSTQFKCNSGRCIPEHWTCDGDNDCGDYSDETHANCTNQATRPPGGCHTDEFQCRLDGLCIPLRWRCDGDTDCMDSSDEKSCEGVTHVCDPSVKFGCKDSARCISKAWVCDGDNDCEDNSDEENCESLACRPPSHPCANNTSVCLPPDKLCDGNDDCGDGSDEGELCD

Biological target: sLRP2, the entire second ligand-binding domain of human LRP1 (human) (UniProt Q07954)
Test: ligand blot, sLRP2 spotted on membrane, detection with anti-RAP antibody

B1: RAP-IDU fusion (human RAP fused N-terminally to human alpha-L-iduronidase) (protein)
chain: SYSREKNQPKPSPKRESGEEFRMEKLNQLWEKAQRLHLPPVRLAELHADLKIQERDELAWKKLKLDGLDEDGEKEARLIRNLNVILAKYGLDGKKDARQVTSNSLSGTQEDGLDDPRLEKLWHKAKTSGKFSGEELDKLWREFLHHKEKVHEYNVLLETLSRTEEIHENVISPSDLSDIKGSVLHSRHTELKEKLRSINQGLDRLRRVSHQGYSTEAEFEEPRVIDLWDLAQSANLTDKELEAFREELKHFEAKIEKHNHYQKQLEIAHEKLRHAESVGDGERVSRSREKHALLEGRTKELGYTVKKHLQDLSGRISRARAEAETGEAPHLVHVDAARALWPLRRFWRSTGFCPPLPHSQADQYVLSWDQQLNLAYVGAVPHRGIKQVRTHWLLELVTTRGSTGRGLSYNFTHLDGYLDLLRENQLLPGFELMGSASGHFTDFEDKQQVFEWKDLVSSLARRYIGRYGLAHVSKWNFETWNEPDHHDFDNVSMTMQGFLNYYDACSEGLRAASPALRLGGPGDSFHTPPRSPLSWGLLRHCHDGTNFFTGEAGVRLDYISLHRKGARSSISILEQEKVVAQQIRQLFPKFADTPIYNDEADPLVGWSLPQPWRADVTYAAMVVKVIAQHQNLLLANTTSAFPYALLSNDNAFLSYHPHPFAQRTLTARFQVNNTRPPHVQLLRKPVLTAMGLLALLDEEQLWAEVSQAGTVLDSNHTVGVLASAHRPQGPADAWRAAVLIYASDDTRAHPNRSVAVTLRLRGVPPGPGLVYVTRYLDNGLCSPDGEWRRLGRPVFPTAEQFRRMRAAEDPVAAAPRPLPAGGRLTLRPALRLPSLLLVHVCARPEKPPGQVTRLRALPLTQGQLVLVWSDEHVGSKCLWTYEIQFSQDGKAYTPVSRKPSTFNLFVFSPDTGAVSGSYRVRALDYWARPGPFSDPVPYLEVPVPRGPPSPGNP
With B1 the binding was “binds”.
